The target in this assay is T1, GST-Rim1^1-200 fusion protein (Rab3 interaction domain of Rab3 interacting molecule 1) (UniProt Q9JIR4).
T1 sequence: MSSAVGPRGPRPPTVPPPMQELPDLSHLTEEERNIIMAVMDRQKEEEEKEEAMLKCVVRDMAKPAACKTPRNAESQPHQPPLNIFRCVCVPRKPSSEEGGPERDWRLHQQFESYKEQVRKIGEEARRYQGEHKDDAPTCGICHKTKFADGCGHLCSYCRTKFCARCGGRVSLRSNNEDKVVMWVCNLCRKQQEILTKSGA
Put plainly: pull-down; GST-Rim1 1-200 as bait; lysates of NRCMs expressing GFP-Rab3a in magnesium lysis buffer (25 mM HEPES pH 7.5, 150 mM NaCl, 1% Igepal CA630, 10 mM MgCl2, 1 mM EDTA, 2% glycerol); anti-GFP immunoblot; cells treated with PBS or phenylephrine (10 uM) for 3 or 24 h with or without FR900359 (1 uM); only the target purified. On the technique in general: Immunoblotting shows a protein as a band on a membrane.

No constants are given. Whether binding was seen depends on the method and setting. Binding seen in cells or lysates may run through a third protein. Some binding calls cover weakened binding; strength is not graded here. Where a sequence is shown, tags or fusion partners need not be part of it.

B1: GFP-tagged wild-type Rab3a (protein, UniProt P20336 1-220)
chain: MASATDSRYGQKESSDQNFDYMFKILIIGNSSVGKTSFLFRYADDSFTPAFVSTVGIDFKVKTIYRNDKRIKLQIWDTAGQERYRTITTAYYRGAMGFILMYDITNEESFNAVQDWSTQIKTYSWDNAQVLLVGNKCDMEDERVVSSERGRQLADHLGFEFFEASAKDNINVKQTFERLVDVICEKMSESLDTADPAVTGAKQGPQLSDQQVPPHQDCAC
Consider B1, for which the binding result is “binds”.

B2: GFP-tagged constitutively active GTP-bound Rab3a (Rab3a^Q81L) (protein, UniProt P20336 1-220)
chain: MASATDSRYGQKESSDQNFDYMFKILIIGNSSVGKTSFLFRYADDSFTPAFVSTVGIDFKVKTIYRNDKRIKLQIWDTAGLERYRTITTAYYRGAMGFILMYDITNEESFNAVQDWSTQIKTYSWDNAQVLLVGNKCDMEDERVVSSERGRQLADHLGFEFFEASAKDNINVKQTFERLVDVICEKMSESLDTADPAVTGAKQGPQLSDQQVPPHQDCAC
Regarding B2, the binding entry is recorded as “binds”.

Source of the values: PMC12256856.
